Measured values reported in paper PMC5709413.
Construct, isoform or probe ends are uncertain for at least one entry. Negatives hold for the conditions tested.

System: GST-BEX1
Assay: EMSA
Settings: recombinant BEX1-GST, stated not to act as site-specific RNA-binding factor to the ARE; 10 mM Tris-HCl, 50 mM KCl, 2.5 mM DTT, 0.25% Tween 20, pH 7.5, RNase inhibitor; 1 pmol probe; room temperature, 30 min; 5% native TBE gel; recombinant protein; protein details: GST; label: 5' Cy5

Sequence: GCACUUAUUAUUUAUUAUUUAUUUAUUAUUUAUUUAUUUGCUUAUGAAUGUAUUUAUUUG [ARE-TNF-cy5]
- binding result: no binding
